For at least one compound, name, drawing or mass did not settle the structure.
How the values were obtained:
[1] = test system: isolated rat liver mitochondria; experiment: Uncoupling activity: increase in basal (state 4) oxygen consumption by oxygraphy; type: biochemical; details: for Measured Uncoupling Activity (% uncoupling ± SEM @ 100 μM): Suppl. Table 1, 2-3 mitochondrial preparations; for Uncoupling (%): increase in basal (state 4) oxygen consumption as % of average ADP-stimulated (state 3) rate in vehicle-treated mitochondria
[2] = test system: isolated rat liver mitochondria; experiment: Residual functional capacity / inhibitory effect on ADP-stimulated (state 3) oxygen consumption; type: biochemical; details: for Residual capacity (%): functional capacity (state 3 minus state 4 rate) as % of vehicle-treated mitochondria

O=c1cc(-c2ccc(O)c(-c3c(O)cc(O)c4c(=O)cc(-c5ccc(O)cc5)oc34)c2)oc2cc(O)cc(O)c12 [amentoflavone]
Measured Uncoupling Activity (% uncoupling ± SEM @ 100 μM) ([1]; 100 μM): 4 ± 1 % uncoupling
Uncoupling (%) ([1]; test conc. 25 μM): 3 ± 0%
Uncoupling (%) ([1]; test conc. 100 μM): 4 ± 1%
inhibition of ADP-stimulated oxygen consumption ([2]; screening at 100 μM): inhibitory activity
Inhibitory effect (%) ([2]; test conc. 25 μM): 27%
Residual capacity (%) ([2]; test conc. 25 μM): 70 ± 0%
Inhibitory effect (%) ([2]; test conc. 100 μM): 57%
Residual capacity (%) ([2]; test conc. 100 μM): 39 ± 5%

O=c1cc(-c2ccccc2)oc2cc(O)cc(O)c12 [chrysin]
uncoupling activity ([1]; 25 μM): complete uncoupling
uncoupling activity ([1]; 100 μM, result in words): complete uncoupling
Measured Uncoupling Activity (% uncoupling ± SEM @ 100 μM) ([1]; 100 μM): 137 ± 16 % uncoupling
Measured Uncoupling (% uncoupling ± SEM @ 100 μM) ([1]; Table 1A, 100 μM, relative to ADP-stimulated respiration = 100%): >100 % uncoupling
uncoupling potency compared with 2,4-dinitrophenol ([1]; dose-escalation): potency on the order of that of 2,4-dinitrophenol
Uncoupling (%) ([1]; test conc. 25 μM): 109 ± 22%
Uncoupling (%) ([1]; test conc. 100 μM): 137 ± 16%
Inhibitory effect (%) ([2]; test conc. 25 μM): 0%
Residual capacity (%) ([2]; test conc. 25 μM): 0 ± 0%
Inhibitory effect (%) ([2]; test conc. 100 μM): 0%
Residual capacity (%) ([2]; test conc. 100 μM): 0 ± 0%

COc1ccc(-c2coc3cc(O)ccc3c2=O)cc1 [formononetin]
Measured Uncoupling Activity (% uncoupling ± SEM @ 100 μM) ([1]; 100 μM): 24 ± 1 % uncoupling
slope of the linear portion of the concentration-to-activity relationship ([1]; dose-escalation, logarithmic scales): 1.36
Uncoupling (%) ([1]; test conc. 25 μM): 7 ± 0%
Uncoupling (%) ([1]; test conc. 100 μM): 24 ± 1%
Inhibitory effect (%) ([2]; test conc. 25 μM): 13%
Residual capacity (%) ([2]; test conc. 25 μM): 80 ± 5%
Inhibitory effect (%) ([2]; test conc. 100 μM): 18%
Residual capacity (%) ([2]; test conc. 100 μM): 58 ± 8%
